Source: PMC11417675, “Systematic Evaluation of Tyrosine Kinase Inhibitors as OATP1B1 Substrates Using a Competitive Counterflow Screen” (Cancer Research Communications, 2024)

Assays:
[1] = target: T1, OATP1B1 (Homo sapiens, UniProt Q9Y6L6); test: Competitive counterflow (CCF) assay, efflux of preloaded [3H]-EβG in OATP1B1-overexpressing HEK293 cells; settings: at all three tested concentrations (1, 10, 100 μmol/L)
T1 sequence (Q9Y6L6 1-691): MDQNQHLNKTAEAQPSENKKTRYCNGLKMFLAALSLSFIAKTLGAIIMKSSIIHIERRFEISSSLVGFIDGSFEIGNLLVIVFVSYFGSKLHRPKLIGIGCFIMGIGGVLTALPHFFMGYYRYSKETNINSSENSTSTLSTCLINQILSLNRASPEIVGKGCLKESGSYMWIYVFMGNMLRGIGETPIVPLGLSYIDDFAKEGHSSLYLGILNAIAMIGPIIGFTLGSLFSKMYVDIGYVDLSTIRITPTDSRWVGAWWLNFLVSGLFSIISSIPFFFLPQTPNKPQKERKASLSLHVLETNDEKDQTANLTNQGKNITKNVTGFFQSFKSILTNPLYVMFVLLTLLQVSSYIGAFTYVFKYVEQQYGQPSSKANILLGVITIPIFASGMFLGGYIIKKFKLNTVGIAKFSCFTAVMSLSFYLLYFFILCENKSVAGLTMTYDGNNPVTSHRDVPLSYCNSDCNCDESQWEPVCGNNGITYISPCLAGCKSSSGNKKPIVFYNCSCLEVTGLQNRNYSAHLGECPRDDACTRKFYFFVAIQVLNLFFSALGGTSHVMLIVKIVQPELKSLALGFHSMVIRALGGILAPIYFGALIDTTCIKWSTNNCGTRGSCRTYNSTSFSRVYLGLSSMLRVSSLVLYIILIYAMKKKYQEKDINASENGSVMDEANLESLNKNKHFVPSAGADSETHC
Method: Cellular accumulation assays were performed in human embryonic kidney cells (HEK293; RRID: CVCL_0045) that were genetically engineered to overexpress human OATP1B1 ([23]–[25]). Cell lines were authenticated by Applied Biosystems AmpFISTR Identifiler testing with PCR amplification. […] All cells were used within passage 30 and verified to be Mycoplasma-free using the MycoAlert Mycoplasma Detection Kit (Lonza). At 80% to 90% confluency, cells were seeded on poly-D-lysine–coated 96-well plates 24 hours prior to the assay (2,500 cells/well), and expression of OATP1B1 was induced with 1 μg/mL doxycycline in phenol red–free DMEM.
The CCF assay uses OATP1B1-overexpressing HEK293 cells seeded and cultured as described above. During the study, cells were preincubated at room temperature (∼ 20°C) with 0.01 μmol/L EβG in prewarmed serum-free and phenol red–free DMEM for 1 hour. Following preincubation, each well was spiked with 1 μL of a stock solution containing 0.1, 1, or 10 mmol/L of positive control (EβG), negative control (glucose), test compound dissolved in Dimethylsulfoxide (DMSO), or DMSO only as a vehicle control. […] Total radioactivity was determined on a MicroBeta microplate scintillation counter (PerkinElmer), and the resulting counts were then normalized to total protein as determined using a Pierce protein assay (Thermo Fisher Scientific).

[2] = tested on: OATP1B3; settings: cited from earlier work
[3] = tested on: P-gp; settings: at 5 µM; ref PMID#17826829; cited from earlier work
[4] = tested on: OATP1B1; settings: cited from earlier work

hit in CCF assay (efflux >50% relative to EβG) [1]: hits
Structure (SMILES): CO[C@@H]1[C@H](N(C)C(=O)c2ccccc2)C[C@H]2O[C@]1(C)n1c3ccccc3c3c4c(c5c6ccccc6n2c5c31)C(=O)NC4 [Midostaurin]
IC50 [2]: 5 µM | P-gp inhibition [3]: 83-91% | reported to inhibit OATP1B1 ([4]; literature reports, ref not given): reported to inhibit OATP1B1 | IC50 ([4]; read-out: OATP1B1 IC50): 0.3 to 1.3 µM
